In patent US8575146B2, “Pharmaceutical uses of staurosporine derivatives” (Novartis AG, priority 2003, dated 2013):

System: BR and C2 canine mastocytoma cells
Test: XTT-based proliferation assay of canine mast cell tumor cell lines
Details: BR or C2 cells
Description: The C2 cell line has an internal tandem duplication (ITD) of the KIT juxtamembrane region.

Structure (SMILES): CO[C@@H]1[C@H](N(C)C(=O)c2ccccc2)C[C@H]2O[C@]1(C)n1c3ccccc3c3c4c(c5c6ccccc6n2c5c31)C(=O)NC4 [PKC412, N-[(9S, 10R,11R,13R)-2,3,10,11,12,13-hexahydro-10-methoxy-9-methyl-1-oxo-9,13-epoxy-1H,9H-diindolo[1,2,3-gh:3′,2′,1′-lm]pyrrolo[3,4j][1,7]benzodiazonin-11-yl]-N-methylbenzamide]
- inhibition of proliferation (0.001-0.01 μM, 48-72 hours): Partial inhibition
- Morphologic observations of the inhibitor treated cells: changes consistent with apoptosis
